Measurements taken from article PMC8433397.
Results are given in words; binding and its absence hold for the method and conditions named. Binding seen in cells or lysates may run through a third protein. A yes stands for co-enrichment or nearness to the bait. Other partners may have been found. Where a sequence is shown, tags or fusion partners need not be part of it.

Sequences of proteins named here, by UniProt entry; tags and fusion partners are left off.
UniProt P63208: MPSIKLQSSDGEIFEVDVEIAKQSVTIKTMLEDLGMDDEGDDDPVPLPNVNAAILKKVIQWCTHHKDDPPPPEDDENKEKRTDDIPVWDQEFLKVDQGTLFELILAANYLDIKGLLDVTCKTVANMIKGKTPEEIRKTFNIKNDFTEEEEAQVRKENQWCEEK
UniProt Q12834: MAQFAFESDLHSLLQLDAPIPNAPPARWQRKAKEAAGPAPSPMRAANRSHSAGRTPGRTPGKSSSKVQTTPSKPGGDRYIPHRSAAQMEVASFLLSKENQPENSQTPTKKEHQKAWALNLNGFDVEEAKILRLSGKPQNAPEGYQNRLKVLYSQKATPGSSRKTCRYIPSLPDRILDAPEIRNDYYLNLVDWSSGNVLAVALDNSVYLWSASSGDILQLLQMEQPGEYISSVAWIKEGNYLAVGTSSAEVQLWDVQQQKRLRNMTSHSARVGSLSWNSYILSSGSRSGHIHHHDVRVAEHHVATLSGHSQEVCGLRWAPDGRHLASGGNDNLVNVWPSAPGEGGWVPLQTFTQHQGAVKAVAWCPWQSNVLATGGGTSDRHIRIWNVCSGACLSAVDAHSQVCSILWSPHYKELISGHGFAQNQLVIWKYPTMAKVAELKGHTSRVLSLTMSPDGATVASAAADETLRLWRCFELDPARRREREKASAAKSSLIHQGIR
UniProt P49674: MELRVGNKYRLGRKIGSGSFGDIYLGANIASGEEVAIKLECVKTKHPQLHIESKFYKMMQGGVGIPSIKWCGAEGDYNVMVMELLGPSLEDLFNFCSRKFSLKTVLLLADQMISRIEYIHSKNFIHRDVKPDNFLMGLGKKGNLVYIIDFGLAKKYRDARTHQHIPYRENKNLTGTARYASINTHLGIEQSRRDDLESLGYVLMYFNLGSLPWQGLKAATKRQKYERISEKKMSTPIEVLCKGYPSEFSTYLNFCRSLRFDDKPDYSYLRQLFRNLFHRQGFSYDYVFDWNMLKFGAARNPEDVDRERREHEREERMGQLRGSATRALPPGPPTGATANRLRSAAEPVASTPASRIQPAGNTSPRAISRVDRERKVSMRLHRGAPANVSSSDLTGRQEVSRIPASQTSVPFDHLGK

Biological target: T1, GST-tagged RB1 (UniProt P06400)
T1 sequence: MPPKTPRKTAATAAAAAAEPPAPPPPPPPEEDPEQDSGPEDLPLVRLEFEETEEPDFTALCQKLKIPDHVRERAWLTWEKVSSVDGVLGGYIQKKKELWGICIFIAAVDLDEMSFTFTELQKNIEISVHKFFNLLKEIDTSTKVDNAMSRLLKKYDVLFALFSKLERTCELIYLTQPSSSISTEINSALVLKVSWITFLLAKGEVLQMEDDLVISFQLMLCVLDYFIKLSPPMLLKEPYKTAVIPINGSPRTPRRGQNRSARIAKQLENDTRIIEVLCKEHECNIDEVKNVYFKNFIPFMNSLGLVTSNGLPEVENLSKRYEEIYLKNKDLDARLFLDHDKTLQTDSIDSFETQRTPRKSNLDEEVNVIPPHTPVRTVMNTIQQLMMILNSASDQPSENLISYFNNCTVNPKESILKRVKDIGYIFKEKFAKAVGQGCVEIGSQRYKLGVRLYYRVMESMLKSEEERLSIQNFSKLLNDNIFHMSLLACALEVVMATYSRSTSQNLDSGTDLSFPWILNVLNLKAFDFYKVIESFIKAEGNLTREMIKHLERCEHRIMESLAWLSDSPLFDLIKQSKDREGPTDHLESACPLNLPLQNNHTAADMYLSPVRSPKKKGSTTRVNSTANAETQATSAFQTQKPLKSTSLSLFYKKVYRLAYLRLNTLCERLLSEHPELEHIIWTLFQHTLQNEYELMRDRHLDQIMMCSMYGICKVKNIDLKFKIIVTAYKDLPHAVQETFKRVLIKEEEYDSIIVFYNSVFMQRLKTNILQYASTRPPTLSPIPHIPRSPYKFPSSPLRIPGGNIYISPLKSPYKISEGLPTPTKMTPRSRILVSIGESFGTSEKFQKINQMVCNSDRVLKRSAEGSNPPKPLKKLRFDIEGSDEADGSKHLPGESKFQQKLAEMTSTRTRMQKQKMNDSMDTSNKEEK
Experiment: affinity purification with mass spectrometry; GST-RB1 expressed in HEK293 cells, CDK4/6i treatment; 1000 μg lysate protein on Glutathione sepharose 4B 6 h at 4 °C, washed four times with NETN buffer (100 mM NaCl, 20 mM Tris-HCl pH 8.0, 0.5 mM EDTA, 0.5% NP-40), eluted with glutathione, LC-MS/MS

Row | binding | Substance
1 | binds | SKP1 (found with GST-RB1 by MS) (from UniProt P63208 1-163)
2 | binds | CDC20 (found with GST-RB1 by MS) (from UniProt Q12834 1-499)
3 | binds | CK1ε (found with GST-RB1 by MS) (from UniProt P49674 1-416) (enzyme)
